The record followed here is article PMC10504283.

Common to all, as to assay: FRET or BRET; FRET-FLIM (two-photon fluorescence lifetime imaging) in plant cells co-expressing a GFP donor fusion and an RFP or mCherry acceptor fusion; lifetimes measured in the nuclear envelope; a donor lifetime significantly lower than that of the donor alone is taken as interaction
A general note: In BRET a luciferase serves as donor, and the signal depends on an acceptor being close.

The target in assay [1] is T1, GFP-PmoC (Methylosinus trichosporium OB3b) (UniProt Q9KX51).
T1 sequence: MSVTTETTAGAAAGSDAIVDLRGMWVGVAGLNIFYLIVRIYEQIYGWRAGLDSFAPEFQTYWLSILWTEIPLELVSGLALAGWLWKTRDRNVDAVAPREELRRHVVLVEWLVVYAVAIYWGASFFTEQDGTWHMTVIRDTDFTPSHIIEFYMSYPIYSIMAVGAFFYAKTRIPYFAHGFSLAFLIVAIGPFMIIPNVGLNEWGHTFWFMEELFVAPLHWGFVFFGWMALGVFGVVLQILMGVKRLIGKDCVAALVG

For assay [2], the target named is T2, GFP-PmoA (Methylosinus trichosporium OB3b) (UniProt Q50541).
T2 sequence: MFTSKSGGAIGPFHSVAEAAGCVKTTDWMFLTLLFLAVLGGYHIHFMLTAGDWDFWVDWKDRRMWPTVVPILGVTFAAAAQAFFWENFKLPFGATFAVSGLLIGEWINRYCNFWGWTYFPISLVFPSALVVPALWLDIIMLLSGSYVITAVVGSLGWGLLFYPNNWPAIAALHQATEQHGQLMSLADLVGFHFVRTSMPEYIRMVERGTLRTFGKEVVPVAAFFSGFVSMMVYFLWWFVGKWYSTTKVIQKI

Assay [3] deals with T3, PmoA-GFP (Methylosinus trichosporium OB3b) (UniProt Q50541).
T3 sequence: T2 sequence

Results are given in words; binding and its absence hold for the method and conditions named. Binding seen in cells or lysates may run through a third protein. Some binding calls cover weakened binding; strength is not graded here. Sequences can lack the tags named with a protein.

B1: csPmoB-loopRFP (domain or fragment, UniProt Q9KX50 40-431)
chain: HGEKSQQAFLRMRTLNWYDVKWSKTSLNVNESMVLSGKVHVFSAWPQAVANPKSSFLNAGEPGPVLVRTAQFIGEQFAPRSVSLEVGKDYAFSIDLKARRAGRWHVHAQINVEGGGPIIGPGQWIEIKGDMADFKDPVTLLDGTTVDLETYGIDRIYAWHFPWMIAAAAWILYWFFKKGIIASYLRISEGKDEEQIGDDDRRVGAIVLAVTILATIIGYAVTNSTFPRTIPLQAGLQKPLTPIIEEGTAGVGPHVVTAELKGGVYKVPGRELTIQVKVTNKTDEPLKLGEYTAAGLRFLNPDVFTTKPEFPDYLLADRGLSTDPTPLAPGETKTIEVKVQDARWDIERLSDLAYDTDSQIGGLLMFFSPSGKRYATEIGGPVIPKFVAGDMP
Turning to B1, the binding result in assay [1] and in assay [2] was “binds” in each case.

B2: mCherry-PmoC (protein, UniProt Q9KX51 1-256)
chain: T1 sequence
Turning to B2, in assay [3], the binding result is listed as “binds”.

B3: GFP-PmoC (protein, UniProt Q9KX51 1-256)
chain: T1 sequence
On to B3, for which the binding result in assay [1] is recorded as “binds”.

B4: PmoC-RFP (protein, UniProt Q9KX51 1-256)
chain: T1 sequence
In the case of B4, the binding entry in assay [3] is listed as “binds”.

B5: GFP-PmoA (protein, UniProt Q50541 1-252)
chain: T2 sequence
As to B5, the binding result in assay [2] is “binds”.
